Measured values published in patent US20180346573A1 (I MAB, published 2018).
Positions count from the first letter of the chain named. These are yes or no findings as the source states them, for the method shown. Some results given as binding are weak or reduced against the parent protein; the word gives no strength. Each block holds one binder with its values, some of them ahead of it.

By UniProt entry, the sequences of proteins in these tests, tags left out. Where a name states a change or a piece, a line headed by the entry shows the natural chain unless it says otherwise. Chains listed by the source or under a name are the forms on record and can include a tag or linker. Residues count along the entry.
rhesus PD-L1-Fc protein (F6PJN1, form named): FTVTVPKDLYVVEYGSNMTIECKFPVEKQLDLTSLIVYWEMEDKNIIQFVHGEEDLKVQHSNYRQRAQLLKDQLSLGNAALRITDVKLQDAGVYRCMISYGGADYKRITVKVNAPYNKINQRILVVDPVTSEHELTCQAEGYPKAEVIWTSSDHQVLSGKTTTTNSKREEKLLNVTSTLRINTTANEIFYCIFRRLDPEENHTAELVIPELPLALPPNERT
UniProt Q9NZQ7, residues 19-239: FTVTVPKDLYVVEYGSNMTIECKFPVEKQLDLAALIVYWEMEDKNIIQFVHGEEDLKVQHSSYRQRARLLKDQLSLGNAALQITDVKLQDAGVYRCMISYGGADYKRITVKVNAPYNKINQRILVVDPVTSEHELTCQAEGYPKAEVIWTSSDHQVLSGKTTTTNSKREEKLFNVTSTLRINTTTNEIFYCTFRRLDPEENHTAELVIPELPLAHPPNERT

What was measured:
[1] = biological target: rhesus PD-L1-Fc protein (rhesus) (UniProt F6PJN1); test: ELISA (FIG. 8 legend)
[2] = biological target: rhesus PD-L1-Fc protein (rhesus) (UniProt F6PJN1); test: ELISA, plate coated with rhesus PD-L1-Fc
[3] = biological target: PD-L1 (antigen of the Octet Red 96 affinity ranking; construct not named) (human) (UniProt Q9NZQ7); test: Octet Red 96 affinity ranking

binding [3]: binds
B2: Hu1210-8 (antibody, V domains shown)
VH: EVQLVESGGGLVKPGGSLRLSCAASGFTFSSYDMSWVRQAPGKGLEWVATISDGGGYIYYSDSVKGRFTISRDNAKNSLYLQMNSLRAEDTAVYYCAREFGKRYALDYWGQGTTVTVSS
VL: DIQMTQSPSSLSASVGDRVTITCKASQDVTPAVAWYQQKPGKSPKLLIYSTSSRYTGVPSRFSGSGSGTDFTFTISSLQPEDIATYYCQQHYTTPLTFGQGTKLEIK

binding [3]: binds
B5: Hu1210-22 (antibody, V domains shown)
VH: B2 VH with K13Q, G44S, A88D, Y95I
VL: B2 VL

binding [3]: binds
B6: Hu1210-14 (antibody, V domains shown)
VH: B2 VH with V5L, K13Q, G44S, A75S, S78T, Y95I
VL: B2 VL with S43A

The remaining lines, values behind:

B1: Hu1210-41 (antibody, V domains shown)
VH: B2 VH with K13Q, G44S, G54A, A88D, Y95I
VL: B2 VL with S43A
binding [1]: binds | binding [2]: binds

B3: Hu1210-1 (antibody, V domains shown)
VH: B2 VH with A49S
VL: B2 VL with S43A
binding [3]: binds

B4: Hu1210-3 (antibody, V domains shown)
VH: B2 VH with G44S, Y95I
VL: B2 VL with S43A
notes: Not the mouse mAb HL1210-3
binding [3]: binds
